Assay [1] concerns the target FLAG-BPLF1 (aa 1-235), catalytically active N-terminal domain of BPLF1 (Epstein-Barr virus) (UniProt P03186). The assay is described as follows: co-IP; anti-FLAG agarose on lysates of transfected HeLa, U2OS or HEK293T cells (NP-40 lysis buffer), elution with 3xFLAG peptide, western blot; in Fig 7A with co-transfected HA-TRIM25, in Fig 5C with co-transfected HA- and FLAG-TRIM25.

By UniProt entry, the sequences of proteins in these tests, tags left out. Residues count along the entry.
UniProt P03186, residues 1-235: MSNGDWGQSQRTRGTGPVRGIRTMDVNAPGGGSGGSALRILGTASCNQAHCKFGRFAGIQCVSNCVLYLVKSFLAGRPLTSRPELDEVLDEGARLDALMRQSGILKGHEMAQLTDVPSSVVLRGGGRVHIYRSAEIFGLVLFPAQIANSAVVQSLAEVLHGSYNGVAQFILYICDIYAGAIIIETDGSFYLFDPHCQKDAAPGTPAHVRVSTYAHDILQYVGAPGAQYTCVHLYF

In assay [2] the target is TRIM25 ubiquitin ligase (endogenous) (human (endogenous in HeLa, U2OS, HEK293T)), Q14258. The assay is described as follows: co-IP; endogenous TRIM25 immunoprecipitated with anti-TRIM25 antibody and protein-G Sepharose from lysates of HeLa cells transfected with FLAG-tagged plasmids, western blot; for RIG-I the cells were co-transfected with GST-2CARD. The conditions noted are these: remark: other sources report otherwise. (Immunoblotting shows a protein as a band on a membrane.)

The target of assay [3] is FLAG-BPLF1 (aa 1-235), catalytically active N-terminal domain of BPLF1 (Epstein-Barr virus) (UniProt P03186). Description: co-IP; told only in the discussion: RIG-I looked for in the BPLF1:14-3-3:TRIM25 complex (Fig 4); which immunoprecipitate was probed is not told.

Drawing on paper PMC5794190, this text covers binding for 4 molecules.

Results are given in words; binding and its absence hold for the method and conditions named. In cells and extracts the contact can be indirect. Some binding calls cover weakened binding; strength is not graded here.

B1: 14-3-3η (protein, UniProt Q04917 1-246)
chain: MGDREQLLQRARLAEQAERYDDMASAMKAVTELNEPLSNEDRNLLSVAYKNVVGARRSSWRVISSIEQKTMADGNEKKLEKVKAYREKIEKELETVCNDVLSLLDKFLIKNCNDFQYESKVFYLKMKGDYYRYLAEVASGEKKNSVVEASEAAYKEAFEISKEQMQPTHPIRLGLALNFSVFYYEIQNAPEQACLLAKQAFDDAIAELDTLNEDSYKDSTLIMQLLRDNLTLWTSDQQDEEAGEGN
For B1, the binding entry in assay [1] is given as “binds”.

B2: 14-3-3γ (protein, UniProt P61981 1-247)
chain: MVDREQLVQKARLAEQAERYDDMAAAMKNVTELNEPLSNEERNLLSVAYKNVVGARRSSWRVISSIEQKTSADGNEKKIEMVRAYREKIEKELEAVCQDVLSLLDNYLIKNCSETQYESKVFYLKMKGDYYRYLAEVATGEKRATVVESSEKAYSEAHEISKEHMQPTHPIRLGLALNYSVFYYEIQNAPEQACHLAKTAFDDAIAELDTLNEDSYKDSTLIMQLLRDNLTLWTSDQQDDDGGEGNN
With B2, the binding entry in assay [1] is “binds”.

B3: RIG-I (endogenous), O95786 1-925 (protein)
chain: MTTEQRRSLQAFQDYIRKTLDPTYILSYMAPWFREEEVQYIQAEKNNKGPMEAATLFLKFLLELQEEGWFRGFLDALDHAGYSGLYEAIESWDFKKIEKLEEYRLLLKRLQPEFKTRIIPTDIISDLSECLINQECEEILQICSTKGMMAGAEKLVECLLRSDKENWPKTLKLALEKERNKFSELWIVEKGIKDVETEDLEDKMETSDIQIFYQEDPECQNLSENSCPPSEVSDTNLYSPFKPRNYQLELALPAMKGKNTIICAPTGCGKTFVSLLICEHHLKKFPQGQKGKVVFFANQIPVYEQQKSVFSKYFERHGYRVTGISGATAENVPVEQIVENNDIIILTPQILVNNLKKGTIPSLSIFTLMIFDECHNTSKQHPYNMIMFNYLDQKLGGSSGPLPQVIGLTASVGVGDAKNTDEALDYICKLCASLDASVIATVKHNLEELEQVVYKPQKFFRKVESRISDKFKYIIAQLMRDTESLAKRICKDLENLSQIQNREFGTQKYEQWIVTVQKACMVFQMPDKDEESRICKALFLYTSHLRKYNDALIISEHARMKDALDYLKDFFSNVRAAGFDEIEQDLTQRFEEKLQELESVSRDPSNENPKLEDLCFILQEEYHLNPETITILFVKTRALVDALKNWIEGNPKLSFLKPGILTGRGKTNQNTGMTLPAQKCILDAFKASGDHNILIATSVADEGIDIAQCNLVILYEYVGNVIKMIQTRGRGRARGSKCFLLTSNAGVIEKEQINMYKEKMMNDSILRLQTWDEAVFREKILHIQTHEKFIRDSQEKPKPVPDKENKKLLCRKCKALACYTADVRVIEECHYTVLGDAFKECFVSRPHPKPKQFSSFEKRAKIFCARQNCSHDWGIHVKYKTFEIPVIKIESFVVEDIATGVQTLYSKWKDFHFEKIPFDPAEMSK
Take B3: the binding result in assay [2] was “binds”.

B4: RIG-I (endogenous) (protein, UniProt O95786 1-925)
chain: B3 chain
Consider B4, for which the binding result in assay [3] is “no binding”.
